The chains behind the UniProt entries cited, without tags or fusion partners. Residues count along the entry.
UniProt Q7X9V3, residues 59-258: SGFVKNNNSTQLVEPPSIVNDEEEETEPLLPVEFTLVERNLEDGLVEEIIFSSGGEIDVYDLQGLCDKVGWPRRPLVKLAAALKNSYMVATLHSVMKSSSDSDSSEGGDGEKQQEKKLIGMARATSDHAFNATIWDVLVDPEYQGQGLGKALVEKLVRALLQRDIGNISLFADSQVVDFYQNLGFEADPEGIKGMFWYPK

In publication PMC11585782, “The Plastidial Protein Acetyltransferase GNAT1 Forms a Complex With GNAT2, yet Their Interaction Is Dispensable for State Transitions” (Molecular & Cellular Proteomics : MCP, 2024):

B1: GNAT1 (enzyme, UniProt Q9C666 38-197)
chain: AMQRKPPSYSISDEDLESRGFLLRRTTEGLNLDQLNSVFAAVGFPRRDTAKIEVALQHTDALLWVEYEKTRRPVAFARATGDGVFNAIIWDVVVDPSFQSCGLGKAVMERLIEDLQVKGICNIALYSEPRVLGFYRPLGFVSDPDGIKGMVFIRKQRNKK
B2: Cold-Responsive 6.6 (protein, UniProt P31169 1-66)
chain: MSETNKNAFQAGQAAGKAEEKSNVLLDKAKDAAAAAGASAQQAGKSISDAAVGGVNFVKDKTGLNK
B3: Cyclophilin-like peptidyl-prolyl cis-trans isomerase family protein (protein, UniProt F4HTT6 75-317)
chain: DTIANPNLTNCENRIPTKKAFIDVSIDGEPIGRIIIGLYGDDVPAGTARFSSIVSGKAGITYRRKDFVKIMPGYVQHGGIRSYGVDAERATAAVGSLQNLIEEWERGKRGEICNVNKAGSVGIVVRDPSKPPPKTKLVARNGKLVVEEEVIAVGPNGTEFVITAVDSPELEDSVLVIGKVLEGMGVVEKMREVKTVRDNTSSPYFRVAKVIGDKRAVVAERGFNRPYSKVVVTNCGLIESQTL
B4: GNAT3 (enzyme, UniProt Q940H2 94-237)
chain: SVFCKPQHVDVDDAVLYSEEESLSSSLYTSEFGRQNKDDSFLGDLFQNAVPLTPSNGQLVGFGRAYSDYGLTASIHDLMVLPSLQRMGIGKLIVNRIVRLLTSRDIYDIAALCFEDERPFFKACGFGDDRMGSTTMMFTKSLEA
B5: RPS17 (protein, UniProt P16180 50-149)
chain: MKTMQGRVVCATSDKTVAVEVVRLAPHPKYKRRVRMKKKYQAHDPDNQFKVGDVVRLEKSRPISKTKSFVALPVIARAARKAEAGGDELLGLPLESQQPA
B6: RPL9 (protein, UniProt P25864 43-197)
chain: QKKAKKLRKVILKEDVTDLGKQGQLLDVKAGFFRNFLLPTGKAQLMTPLLLKELKMEDERIEAEKQRVKEEAQQLAMVFQTVGAFKVKRKGGKGKLIFGSVTAQDLVDIIKSQLQKDIDKRLVSLPEIRETGEYIAELKLHPDVTARVKINVFAN
B7: Cold-Regulated 15B (protein, UniProt Q9SIN5 42-141)
chain: AQRKKSLIYAVKSDGNILDDLNEATKKASDFVTDKTKEALADGEKTKDYIVEKTIEANETATEEAKKALDYVTEKGKEAGNKAAEFVEGKAEEAKNATKS

Target: T1, GNAT3-GFP (Arabidopsis thaliana) (UniProt Q940H2)
T1 sequence: B4 chain
Test: affinity purification with mass spectrometry; GFP-Trap A beads with 2 mg leaf protein of GNAT1-, GNAT2- or GNAT3-GFP overexpressing Arabidopsis lines, 2 h at 4 °C; extraction buffer 50 mM HEPES-KOH pH 7.5, 150 mM NaCl, 10% glycerol, 2 mM EDTA, 5 mM DTT, 0.5% Triton X-100; label-free quantification against a chloroplast-targeted GFP control line; four biological replicates

Binder | binding
B1 | no binding

Target: GNAT2-GFP (Arabidopsis thaliana) (UniProt Q7X9V3)
Test: as above

Binder | binding
B1 | binds
B2 | binds
B3 | binds
B4 | binds
B5 | binds
B6 | binds
B7 | binds

Target: T2, GNAT1-GFP (Arabidopsis thaliana) (UniProt Q9C666)
T2 sequence: B1 chain
Test: as above

Binder | binding
B2 | binds
B3 | binds

These are yes or no findings as the source states them, for the method shown. In cells and extracts the contact can be indirect. Here binding means that the protein was enriched with, or labelled near, the bait; the list need not be complete. For some of these results: No binding means not detected with the bait. For some of these results: Tags and fused reporters may be left off the sequences shown.
